Publication doi:10.1101/2020.03.29.015024
Results are given in words; binding and its absence hold for the method and conditions named. In cells and extracts the contact can be indirect. Some results given as binding are weak or reduced against the parent protein; the word gives no strength. Where a sequence is shown, tags or fusion partners need not be part of it.

Protein sequences, listed by entry. Tags and fused reporters are not part of them.
UniProt Q9Z2C8: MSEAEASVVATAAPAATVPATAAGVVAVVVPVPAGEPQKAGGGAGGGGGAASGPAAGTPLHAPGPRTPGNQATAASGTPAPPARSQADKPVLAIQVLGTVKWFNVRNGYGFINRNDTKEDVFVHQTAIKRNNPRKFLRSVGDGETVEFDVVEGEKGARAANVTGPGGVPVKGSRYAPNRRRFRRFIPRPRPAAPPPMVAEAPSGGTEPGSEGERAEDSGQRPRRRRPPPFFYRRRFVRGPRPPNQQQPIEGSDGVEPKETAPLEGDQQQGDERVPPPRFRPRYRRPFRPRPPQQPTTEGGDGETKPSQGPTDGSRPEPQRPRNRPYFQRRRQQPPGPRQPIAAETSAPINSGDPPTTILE
UniProt Q9JMB7: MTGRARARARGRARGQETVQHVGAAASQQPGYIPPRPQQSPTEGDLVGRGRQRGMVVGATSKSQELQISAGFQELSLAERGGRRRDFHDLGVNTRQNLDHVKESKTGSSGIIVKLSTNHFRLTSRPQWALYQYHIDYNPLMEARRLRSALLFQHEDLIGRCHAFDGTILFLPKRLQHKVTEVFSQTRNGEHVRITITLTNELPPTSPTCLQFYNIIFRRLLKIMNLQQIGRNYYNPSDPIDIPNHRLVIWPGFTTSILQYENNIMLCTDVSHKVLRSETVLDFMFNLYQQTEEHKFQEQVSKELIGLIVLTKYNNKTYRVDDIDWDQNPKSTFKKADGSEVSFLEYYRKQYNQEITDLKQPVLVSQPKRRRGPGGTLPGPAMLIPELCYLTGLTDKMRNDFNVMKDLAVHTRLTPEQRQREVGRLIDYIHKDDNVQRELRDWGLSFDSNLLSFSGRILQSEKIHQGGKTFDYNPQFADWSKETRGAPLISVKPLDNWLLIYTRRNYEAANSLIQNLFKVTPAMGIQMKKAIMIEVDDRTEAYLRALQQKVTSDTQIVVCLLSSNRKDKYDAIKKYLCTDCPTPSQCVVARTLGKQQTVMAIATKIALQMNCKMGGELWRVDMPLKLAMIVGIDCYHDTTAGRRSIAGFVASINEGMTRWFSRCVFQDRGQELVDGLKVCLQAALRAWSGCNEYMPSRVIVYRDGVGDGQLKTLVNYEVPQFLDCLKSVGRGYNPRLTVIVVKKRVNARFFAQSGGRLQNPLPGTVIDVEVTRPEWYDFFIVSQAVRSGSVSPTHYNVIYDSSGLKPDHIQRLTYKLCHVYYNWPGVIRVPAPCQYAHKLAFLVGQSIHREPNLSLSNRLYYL
UniProt P10126: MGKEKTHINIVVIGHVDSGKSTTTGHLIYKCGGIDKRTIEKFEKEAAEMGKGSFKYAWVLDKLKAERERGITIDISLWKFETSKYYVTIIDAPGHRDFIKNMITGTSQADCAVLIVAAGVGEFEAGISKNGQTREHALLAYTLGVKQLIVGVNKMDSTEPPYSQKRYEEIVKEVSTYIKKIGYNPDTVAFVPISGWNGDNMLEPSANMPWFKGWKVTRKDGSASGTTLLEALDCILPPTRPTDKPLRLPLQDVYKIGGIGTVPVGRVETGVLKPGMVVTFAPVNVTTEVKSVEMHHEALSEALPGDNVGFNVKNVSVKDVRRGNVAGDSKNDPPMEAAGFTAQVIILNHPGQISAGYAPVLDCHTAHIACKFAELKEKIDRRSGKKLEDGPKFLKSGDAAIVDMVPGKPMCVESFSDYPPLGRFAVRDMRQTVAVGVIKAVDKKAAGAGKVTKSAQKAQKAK
UniProt P62631: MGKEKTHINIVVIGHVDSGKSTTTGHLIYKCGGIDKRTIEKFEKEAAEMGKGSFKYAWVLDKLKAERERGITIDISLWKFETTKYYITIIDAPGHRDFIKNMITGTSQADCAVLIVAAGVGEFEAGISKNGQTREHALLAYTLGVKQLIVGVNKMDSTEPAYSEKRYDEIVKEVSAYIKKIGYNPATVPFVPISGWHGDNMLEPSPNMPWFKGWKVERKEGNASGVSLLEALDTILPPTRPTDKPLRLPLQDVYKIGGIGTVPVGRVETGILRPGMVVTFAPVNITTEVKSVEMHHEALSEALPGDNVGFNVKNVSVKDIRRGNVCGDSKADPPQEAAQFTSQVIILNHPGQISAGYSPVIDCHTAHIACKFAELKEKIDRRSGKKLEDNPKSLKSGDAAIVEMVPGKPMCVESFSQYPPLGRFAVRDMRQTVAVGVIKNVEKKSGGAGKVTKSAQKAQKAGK

Columns and labels:
Experiment in all cases: co-IP
[1] = biological target: T1, GASZ (mouse (endogenous in testis)) (UniProt Q8VD46)
T1 sequence: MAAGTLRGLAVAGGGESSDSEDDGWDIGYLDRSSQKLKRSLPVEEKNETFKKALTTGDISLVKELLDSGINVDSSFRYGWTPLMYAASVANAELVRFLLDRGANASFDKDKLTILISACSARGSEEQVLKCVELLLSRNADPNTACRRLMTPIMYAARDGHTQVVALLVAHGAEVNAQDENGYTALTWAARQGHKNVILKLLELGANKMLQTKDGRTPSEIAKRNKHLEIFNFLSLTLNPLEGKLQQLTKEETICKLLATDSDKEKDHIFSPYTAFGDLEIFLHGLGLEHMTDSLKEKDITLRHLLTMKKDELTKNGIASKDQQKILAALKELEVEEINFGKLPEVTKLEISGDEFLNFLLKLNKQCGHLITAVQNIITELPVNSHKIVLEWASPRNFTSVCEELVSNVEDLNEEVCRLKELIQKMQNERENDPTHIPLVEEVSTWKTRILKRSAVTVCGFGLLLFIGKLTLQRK

[2] = biological target: MSY2 (mouse (endogenous in testis)) (UniProt Q9Z2C8)
[3] = biological target: MIWI (mouse (endogenous in testis)) (UniProt Q9JMB7)
[4] = biological target: T2, DDX4 (mouse (endogenous in testis)) (UniProt Q61496)
T2 sequence: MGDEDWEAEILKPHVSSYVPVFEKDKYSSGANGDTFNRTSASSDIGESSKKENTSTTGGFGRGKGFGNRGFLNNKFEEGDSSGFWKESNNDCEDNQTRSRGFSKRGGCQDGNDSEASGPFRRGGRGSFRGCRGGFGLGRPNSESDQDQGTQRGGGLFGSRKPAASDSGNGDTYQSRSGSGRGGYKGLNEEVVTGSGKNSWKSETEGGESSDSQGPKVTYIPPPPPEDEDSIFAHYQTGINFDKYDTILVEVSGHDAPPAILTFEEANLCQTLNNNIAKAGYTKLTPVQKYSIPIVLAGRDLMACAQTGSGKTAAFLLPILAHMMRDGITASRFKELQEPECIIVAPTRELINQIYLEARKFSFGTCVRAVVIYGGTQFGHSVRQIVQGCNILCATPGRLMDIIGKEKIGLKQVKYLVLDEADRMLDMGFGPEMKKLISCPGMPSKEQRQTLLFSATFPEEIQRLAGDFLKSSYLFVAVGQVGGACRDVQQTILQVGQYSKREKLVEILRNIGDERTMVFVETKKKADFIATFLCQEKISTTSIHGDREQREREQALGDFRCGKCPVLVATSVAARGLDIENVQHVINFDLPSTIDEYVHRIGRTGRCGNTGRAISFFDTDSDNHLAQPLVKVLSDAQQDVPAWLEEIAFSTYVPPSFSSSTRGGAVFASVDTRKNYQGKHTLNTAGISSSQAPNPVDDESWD

[5] = biological target: T3, TDRKH (mouse (endogenous in testis)) (UniProt Q80VL1)
T3 sequence: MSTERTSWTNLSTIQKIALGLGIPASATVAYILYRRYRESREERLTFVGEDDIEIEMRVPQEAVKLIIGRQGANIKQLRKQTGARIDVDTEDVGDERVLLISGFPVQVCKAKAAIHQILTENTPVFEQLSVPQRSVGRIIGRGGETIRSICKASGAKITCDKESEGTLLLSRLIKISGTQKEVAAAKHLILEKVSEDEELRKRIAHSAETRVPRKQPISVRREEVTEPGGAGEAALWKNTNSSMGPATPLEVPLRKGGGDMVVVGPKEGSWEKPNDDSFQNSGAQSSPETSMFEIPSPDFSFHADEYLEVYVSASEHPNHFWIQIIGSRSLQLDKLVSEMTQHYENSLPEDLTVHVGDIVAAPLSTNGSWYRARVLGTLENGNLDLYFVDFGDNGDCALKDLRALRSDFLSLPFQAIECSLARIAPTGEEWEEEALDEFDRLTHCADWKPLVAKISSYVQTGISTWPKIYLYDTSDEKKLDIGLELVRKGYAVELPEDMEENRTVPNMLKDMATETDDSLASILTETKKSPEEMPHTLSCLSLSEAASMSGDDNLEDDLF

[6] = biological target: T4, Mitofusin 1 (MFN1) (mouse (endogenous in testis)) (UniProt Q811U4)
T4 sequence: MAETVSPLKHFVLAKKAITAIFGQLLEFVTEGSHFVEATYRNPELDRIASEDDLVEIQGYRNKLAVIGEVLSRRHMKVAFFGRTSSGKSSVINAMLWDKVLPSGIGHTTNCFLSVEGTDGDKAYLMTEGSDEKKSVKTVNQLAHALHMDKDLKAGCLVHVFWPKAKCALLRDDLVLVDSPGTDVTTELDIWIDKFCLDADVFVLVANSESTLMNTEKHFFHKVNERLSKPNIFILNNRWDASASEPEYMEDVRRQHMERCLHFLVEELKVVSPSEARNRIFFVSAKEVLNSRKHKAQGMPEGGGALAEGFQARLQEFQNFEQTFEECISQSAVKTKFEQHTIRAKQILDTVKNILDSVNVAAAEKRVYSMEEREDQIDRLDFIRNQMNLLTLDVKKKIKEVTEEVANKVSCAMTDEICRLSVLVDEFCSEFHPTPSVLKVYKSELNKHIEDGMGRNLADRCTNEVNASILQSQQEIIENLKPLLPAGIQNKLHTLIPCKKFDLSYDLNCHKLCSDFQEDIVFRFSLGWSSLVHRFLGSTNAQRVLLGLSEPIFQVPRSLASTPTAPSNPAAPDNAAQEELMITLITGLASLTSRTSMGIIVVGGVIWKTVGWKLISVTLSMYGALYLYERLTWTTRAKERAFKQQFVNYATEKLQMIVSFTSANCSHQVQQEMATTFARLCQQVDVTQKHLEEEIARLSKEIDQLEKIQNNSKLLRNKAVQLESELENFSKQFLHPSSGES

[7] = biological target: eukaryotic elongation factor 1 alpha 1 (eEF1A1) (mouse (endogenous in testis)) (UniProt P10126)
[8] = biological target: eukaryotic elongation factor 1 alpha 2 (eEF1A2) (mouse (endogenous in testis)) (UniProt P62631)
[9] = biological target: T5, MYC-tagged full-length DDX4 (mouse) (UniProt Q61496)
T5 sequence: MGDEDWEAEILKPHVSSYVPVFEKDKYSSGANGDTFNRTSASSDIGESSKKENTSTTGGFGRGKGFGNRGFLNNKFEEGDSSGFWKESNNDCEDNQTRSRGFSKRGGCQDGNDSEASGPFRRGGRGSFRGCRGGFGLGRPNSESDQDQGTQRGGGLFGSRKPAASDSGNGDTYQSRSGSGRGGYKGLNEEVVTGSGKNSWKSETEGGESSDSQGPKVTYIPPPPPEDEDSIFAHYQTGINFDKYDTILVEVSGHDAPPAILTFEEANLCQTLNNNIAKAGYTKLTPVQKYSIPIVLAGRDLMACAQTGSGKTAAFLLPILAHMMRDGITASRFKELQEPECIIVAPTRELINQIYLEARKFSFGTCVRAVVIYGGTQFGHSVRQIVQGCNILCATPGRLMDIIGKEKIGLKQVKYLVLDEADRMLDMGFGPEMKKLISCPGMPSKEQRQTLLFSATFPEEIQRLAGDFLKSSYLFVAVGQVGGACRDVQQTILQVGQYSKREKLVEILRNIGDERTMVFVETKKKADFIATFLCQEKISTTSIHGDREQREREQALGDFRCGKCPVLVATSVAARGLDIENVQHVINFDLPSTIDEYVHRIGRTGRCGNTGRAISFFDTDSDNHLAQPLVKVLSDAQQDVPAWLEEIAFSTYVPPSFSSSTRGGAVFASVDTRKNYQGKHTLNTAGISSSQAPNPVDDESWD

[10] = biological target: MYC-tagged full-length MSY2 (mouse) (UniProt Q9Z2C8)
[11] = biological target: MYC-tagged full-length MIWI (mouse) (UniProt Q9JMB7)
[12] = biological target: T6, MYC-tagged full-length TDRKH (mouse) (UniProt Q80VL1)
T6 sequence: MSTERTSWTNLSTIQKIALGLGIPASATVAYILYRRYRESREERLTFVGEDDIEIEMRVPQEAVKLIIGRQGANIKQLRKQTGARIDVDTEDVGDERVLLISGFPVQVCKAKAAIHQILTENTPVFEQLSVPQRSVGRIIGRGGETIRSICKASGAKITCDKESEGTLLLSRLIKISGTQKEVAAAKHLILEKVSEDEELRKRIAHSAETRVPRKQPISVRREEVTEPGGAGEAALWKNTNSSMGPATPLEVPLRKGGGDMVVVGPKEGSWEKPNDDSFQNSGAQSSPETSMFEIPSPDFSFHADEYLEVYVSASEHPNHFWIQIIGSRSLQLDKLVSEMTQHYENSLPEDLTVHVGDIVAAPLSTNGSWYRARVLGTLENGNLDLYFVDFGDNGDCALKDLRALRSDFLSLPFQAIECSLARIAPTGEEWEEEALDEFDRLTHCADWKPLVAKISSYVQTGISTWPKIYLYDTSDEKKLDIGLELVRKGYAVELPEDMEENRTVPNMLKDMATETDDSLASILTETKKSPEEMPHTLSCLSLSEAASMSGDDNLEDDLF

Measured: binding

B1: Mitofusin 2 (MFN2) (protein, UniProt Q80U63 1-757)
chain: MSLLFSRCNSIVTVKKDKRHMAEVNASPLKHFVTAKKKINGIFEQLGAYIQESASFLEDTHRNTELDPVTTEEQVLDVKGYLSKVRGISEVLARRHMKVAFFGRTSNGKSTVINAMLWDKVLPSGIGHTTNCFLRVGGTDGHEAFLLTEGSEEKKSVKTVNQLAHALHQDEQLHAGSMVSVMWPNSKCPLLKDDLVLMDSPGIDVTTELDSWIDKFCLDADVFVLVANSESTLMQTEKQFFHKVSERLSRPNIFILNNRWDASASEPEYMEEVRRQHMERCTSFLVDELGVVDRAQAGDRIFFVSAKEVLSARVQKAQGMPEGGGALAEGFQVRMFEFQNFERQFEECISQSAVKTKFEQHTVRAKQIAEAVRLIMDSLHIAAQEQRVYCLEMREERQDRLRFIDKQLELLAQDYKLRIKQITEEVERQVSTAMAEEIRRLSVLVDEYQMDFHPSPVVLKVYKNELHRHIEEGLGRNLSDRCSTAIASSLQTMQQDMIDGLKPLLPVSMRNQIDMLVPRQCFSLSYDLNCDKLCADFQEDIEFHFSLGWTMLVNRFLGPKNSRRALLGYSDQVQRPLPLTPANPSMPPLPQSSLTQEELMVSMVTGLASLTSRTSMGILVVGGVVWKAVGWRLIALSFGLYGLLYVYERLTWTTKAKERAFKRQFVEYASEKLQLIISYTGSNCSHQVQQELSGTFAHLCQQVDITRDNLEQEIAAMNKKVEALDSLQSRAKLLRNKAGWLDSELNMFTHQYLQPSR
binds: [1] | [2] | [3] | [4] | [5] | [6] | [7] | [8]

B2: 2X FLAG-tagged full-length MFN2 (protein, UniProt Q80U63 1-757)
chain: MSLLFSRCNSIVTVKKDKRHMAEVNASPLKHFVTAKKKINGIFEQLGAYIQESASFLEDTHRNTELDPVTTEEQVLDVKGYLSKVRGISEVLARRHMKVAFFGRTSNGKSTVINAMLWDKVLPSGIGHTTNCFLRVGGTDGHEAFLLTEGSEEKKSVKTVNQLAHALHQDEQLHAGSMVSVMWPNSKCPLLKDDLVLMDSPGIDVTTELDSWIDKFCLDADVFVLVANSESTLMQTEKQFFHKVSERLSRPNIFILNNRWDASASEPEYMEEVRRQHMERCTSFLVDELGVVDRAQAGDRIFFVSAKEVLSARVQKAQGMPEGGGALAEGFQVRMFEFQNFERQFEECISQSAVKTKFEQHTVRAKQIAEAVRLIMDSLHIAAQEQRVYCLEMREERQDRLRFIDKQLELLAQDYKLRIKQITEEVERQVSTAMAEEIRRLSVLVDEYQMDFHPSPVVLKVYKNELHRHIEEGLGRNLSDRCSTAIASSLQTMQQDMIDGLKPLLPVSMRNQIDMLVPRQCFSLSYDLNCDKLCADFQEDIEFHFSLGWTMLVNRFLGPKNSRRALLGYSDQVQRPLPLTPANPSMPPLPQSSLTQEELMVSMVTGLASLTSRTSMGILVVGGVVWKAVGWRLIALSFGLYGLLYVYERLTWTTKAKERAFKRQFVEYASEKLQLIISYTGSNCSHQVQQELSGTFAHLCQQVDITRDNLEQEIAAMNKKVEALDSLQSRAKLLRNKAGWLDSELNMFTHQYLQPSR
binds: [9] | [10] | [11] | [12]
